Each structure is given as a SMILES string.

This data set can be described thus: One-pot pretreatment and saccharification of switchgrass using [Ch][Lys] and CO2. On the set-up: species or system Panicum virgatum.
Where [1] appears, read: 10 wt % [Ch][Lys]-water as pretreatment medium and throughout saccharification.
Where [2] appears, read: CO2 and [Ch][Lys] based one-pot process, after 72 h saccharification, commercial enzyme mixture.

In the case of `C[N+](C)(C)CCO.NCCCC[C@H](N)C(=O)[O-]` [[Ch][Lys], cholinium lysinate], under setting [1], the glucose yield stood at 85% and the “xylose yield (monomer)” value amounted to 11%. Further, under setting [2], the glucose yield was 87% and the xylose yield is 40%.

The values above are taken from US11976311B2, “Method of adjusting the pH of a pretreatment solution using carbon dioxide useful for integrating saccharification and fermentation of a biomass” (National Technology & Engineering Solutions of Sandia, LLC, priority 2014, dated 2024).
